Assay results as given in the supplement of paper PMC8426693.
This is one part of the list.

Experiments:
Assay in all cases: NMR binding call after quantification (hit when 2 of 3 NMR criteria are met) (binary (1 = binding, 0 = not binding)); higher = binding
Details in all cases: RNA concentration 10 µM; fragment concentration 200 µM; 293 K
[1] = system: SARS-CoV-2 5_SL7 RNA
[2] = system: SARS-CoV-2 5_SL8 RNA
[3] = system: SARS-CoV-2 attenuator hairpin (att HP) RNA
[4] = system: SARS-CoV-2 frameshift pseudoknot (PK) RNA

SMILES | NMR binding call [1] | NMR binding call [2] | NMR binding call [3] | NMR binding call [4]
Cl.Cn1cc(C(N)=O)c(C2CCCNC2)n1 (stereo unspecified) | 0 | 0 | 0 | 0
Cc1ccccc1-n1cc(C(=O)O)nn1 | 0 | 0 | 0 | 0
NC(=O)C1CCCn2ccnc21 (stereo unspecified) | 0 | 0 | 0 | 0
CNC(=O)CN(C)C1CCCCCC1 | 0 | 0 | 0 | 0
O=C(NCc1ccco1)Nc1ccc(F)cc1 | 0 | 0 | 0 | 0
CC(=O)NCC1(c2ccccc2)CCOCC1 | 0 | 0 | 0 | 0
CN(C)Cc1ccc(C#N)cc1 | 0 | 0 | 0 | 0
CCOC(=O)c1cc(-c2ccc(F)cc2)no1 | 0 | 0 | 0 | 0
CC(C)(C(N)=O)c1ccccc1 | 0 | 0 | 0 | 0
OCc1cn(-c2ccc(Cl)c(Cl)c2)nn1 | 1 | 1 | 1 | 1
CCOC(=O)NCc1ccccc1 | 0 | 0 | 0 | 0
COc1ccc(NC2=NCCN2)cc1 | 0 | 0 | 0 | 0
CC(N)CN1CCOCC1 (stereo unspecified) | 0 | 0 | 0 | 0
CN1CCN(C(=O)C2CCCO2)CC1 (stereo unspecified) | 0 | 0 | 0 | 0
COC(=O)c1cccc(NS(C)(=O)=O)c1 | 0 | 0 | 0 | 0
CNc1ccccc1S(C)(=O)=O | 0 | 0 | 0 | 0
CN(C)c1ccc(CNn2cnnc2)cc1 | 0 | 0 | 0 | 0
NC(=O)c1cnn(CCO)c1 | 0 | 0 | 0 | 0
Cl.O=C(O)CCN1CCCCC1 | 0 | 0 | 0 | 0
Cc1nnc(N2CCCCC2)s1 | 0 | 0 | 0 | 0
COc1ccc(NC(=O)Nc2cccs2)cn1 | 0 | 0 | 0 | 0
CS(=O)(=O)N1CCC(C(=O)NC2CC2)CC1 | 0 | 0 | 0 | 0

Retrieved one by one from above:
SMILES | NMR binding call [1] | NMR binding call [2] | NMR binding call [3] | NMR binding call [4]
NC(=O)C1CCCn2ccnc21 (stereo unspecified) | 0 | 0 | 0 | 0
CNC(=O)CN(C)C1CCCCCC1 | 0 | 0 | 0 | 0

Going on with the list:

SMILES | NMR binding call [1] | NMR binding call [2] | NMR binding call [3] | NMR binding call [4]
CC(O)CNCc1ccc2c(c1)OCO2 (stereo unspecified) | 0 | 0 | 0 | 0
OCc1cn(-c2ccc(Cl)cc2)nn1 | 0 | 0 | 0 | 0
Cc1cc(C(=O)NC(C)C)nn1C | 0 | 0 | 0 | 0
CC(C)C(=O)NCc1nc2ccccc2[nH]1 | 0 | 0 | 0 | 0
CS(=O)(=O)c1nccn1Cc1cscn1 | 0 | 0 | 0 | 0
COc1cccc2[nH]ccc12 | 0 | 0 | 0 | 0
CNC(=O)c1ccc(CS(C)(=O)=O)cc1 | 0 | 0 | 0 | 0
O=C(NCc1nc2ccccc2[nH]1)c1ccco1 | 0 | 0 | 0 | 0
CN(CC(=O)O)C(=O)c1ccc(F)cc1 | 0 | 0 | 0 | 0
Cc1ncc(CN2CCNCC2)s1 | 0 | 0 | 0 | 0
CC(C)NC(=O)N(C)Cc1cnn(C)c1 | 0 | 0 | 0 | 0
O=S1(=O)CCN(Cc2ccco2)CC1 | 0 | 0 | 0 | 0
O=C(c1ccco1)N1CCN(C(=O)C2CC2)CC1 | 0 | 0 | 0 | 0
CC(O)CCn1cccn1 (stereo unspecified) | 0 | 0 | 0 | 0
CC(=O)N1CCCNCC1 | 0 | 0 | 0 | 0
c1csc(-c2ncc[nH]2)c1 | 0 | 0 | 0 | 0
CC1(C)CCCN1CCN | 0 | 0 | 0 | 0
CC(=O)N1CC(O)CC1C(=O)O (stereo unspecified) | 0 | 0 | 0 | 0
Cc1ccccc1CNc1nnnn1C | 0 | 0 | 0 | 0
OCc1ccc(-n2cnc3ccccc32)cc1 | 0 | 0 | 0 | 0
CC1CN(C(=O)Cn2cccn2)CCO1 (stereo unspecified) | 0 | 0 | 0 | 0
CC1CN(C)CCC1Nc1cnn(C)c1 (stereo unspecified) | 0 | 0 | 0 | 0
